Laboratory results reported in PMC9866090.

Protein sequences, listed by entry. Tags and fused reporters are not part of them. Residues count along the entry.
UniProt O75494: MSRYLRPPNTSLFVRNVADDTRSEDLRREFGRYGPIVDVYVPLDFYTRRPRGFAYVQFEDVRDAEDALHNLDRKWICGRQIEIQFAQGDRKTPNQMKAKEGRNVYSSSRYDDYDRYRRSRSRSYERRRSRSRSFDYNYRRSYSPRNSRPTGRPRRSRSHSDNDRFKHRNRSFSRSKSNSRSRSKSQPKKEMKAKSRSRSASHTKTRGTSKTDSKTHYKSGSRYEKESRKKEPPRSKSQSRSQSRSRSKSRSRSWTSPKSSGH
UniProt P38159: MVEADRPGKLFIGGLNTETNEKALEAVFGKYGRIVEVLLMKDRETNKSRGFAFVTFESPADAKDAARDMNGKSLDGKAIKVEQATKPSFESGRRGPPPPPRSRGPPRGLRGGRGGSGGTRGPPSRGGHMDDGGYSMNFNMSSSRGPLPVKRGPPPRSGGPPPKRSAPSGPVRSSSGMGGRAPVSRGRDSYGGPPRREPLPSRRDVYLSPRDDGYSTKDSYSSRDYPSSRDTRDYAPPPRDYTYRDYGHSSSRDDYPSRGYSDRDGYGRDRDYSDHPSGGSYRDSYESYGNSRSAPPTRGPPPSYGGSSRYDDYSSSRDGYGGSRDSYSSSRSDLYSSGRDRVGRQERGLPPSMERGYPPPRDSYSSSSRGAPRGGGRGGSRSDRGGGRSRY
UniProt Q9BQE3: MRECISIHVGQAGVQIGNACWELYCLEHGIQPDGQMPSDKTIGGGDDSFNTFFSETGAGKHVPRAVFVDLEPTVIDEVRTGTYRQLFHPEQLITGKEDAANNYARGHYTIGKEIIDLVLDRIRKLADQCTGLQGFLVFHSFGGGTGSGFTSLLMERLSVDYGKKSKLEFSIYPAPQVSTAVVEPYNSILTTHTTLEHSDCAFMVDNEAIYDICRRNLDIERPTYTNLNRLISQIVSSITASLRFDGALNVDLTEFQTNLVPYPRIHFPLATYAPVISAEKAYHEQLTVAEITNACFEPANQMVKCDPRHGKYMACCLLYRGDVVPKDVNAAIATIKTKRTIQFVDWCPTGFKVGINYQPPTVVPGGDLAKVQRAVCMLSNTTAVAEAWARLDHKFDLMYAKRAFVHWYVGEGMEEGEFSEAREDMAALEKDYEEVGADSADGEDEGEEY
UniProt Q99714: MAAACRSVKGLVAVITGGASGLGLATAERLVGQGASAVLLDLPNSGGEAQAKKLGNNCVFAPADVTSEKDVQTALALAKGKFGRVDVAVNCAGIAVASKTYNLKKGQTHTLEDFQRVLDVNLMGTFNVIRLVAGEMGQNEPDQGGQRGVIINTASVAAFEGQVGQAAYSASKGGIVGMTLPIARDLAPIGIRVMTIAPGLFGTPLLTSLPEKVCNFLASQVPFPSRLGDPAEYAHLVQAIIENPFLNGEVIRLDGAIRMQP
UniProt P21127: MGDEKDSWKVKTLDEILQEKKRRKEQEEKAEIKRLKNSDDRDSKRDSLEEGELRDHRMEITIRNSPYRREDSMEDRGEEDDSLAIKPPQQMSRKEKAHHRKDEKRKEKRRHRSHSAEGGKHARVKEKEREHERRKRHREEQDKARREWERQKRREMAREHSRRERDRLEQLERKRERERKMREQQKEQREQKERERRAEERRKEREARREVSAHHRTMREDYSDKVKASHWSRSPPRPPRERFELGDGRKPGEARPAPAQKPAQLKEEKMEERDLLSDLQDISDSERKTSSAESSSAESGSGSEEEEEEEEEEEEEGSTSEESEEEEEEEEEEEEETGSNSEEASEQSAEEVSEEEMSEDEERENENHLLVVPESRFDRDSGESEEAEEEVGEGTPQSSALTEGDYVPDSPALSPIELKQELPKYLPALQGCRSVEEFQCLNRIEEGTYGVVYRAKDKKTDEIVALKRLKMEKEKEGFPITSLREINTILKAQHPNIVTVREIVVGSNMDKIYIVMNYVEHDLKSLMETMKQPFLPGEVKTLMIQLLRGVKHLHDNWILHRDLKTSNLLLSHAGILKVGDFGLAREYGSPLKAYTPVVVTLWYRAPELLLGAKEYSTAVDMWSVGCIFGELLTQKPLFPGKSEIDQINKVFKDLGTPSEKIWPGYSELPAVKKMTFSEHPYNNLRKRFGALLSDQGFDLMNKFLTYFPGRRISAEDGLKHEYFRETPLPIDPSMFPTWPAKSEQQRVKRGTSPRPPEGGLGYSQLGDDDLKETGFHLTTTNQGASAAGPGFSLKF
UniProt P35250: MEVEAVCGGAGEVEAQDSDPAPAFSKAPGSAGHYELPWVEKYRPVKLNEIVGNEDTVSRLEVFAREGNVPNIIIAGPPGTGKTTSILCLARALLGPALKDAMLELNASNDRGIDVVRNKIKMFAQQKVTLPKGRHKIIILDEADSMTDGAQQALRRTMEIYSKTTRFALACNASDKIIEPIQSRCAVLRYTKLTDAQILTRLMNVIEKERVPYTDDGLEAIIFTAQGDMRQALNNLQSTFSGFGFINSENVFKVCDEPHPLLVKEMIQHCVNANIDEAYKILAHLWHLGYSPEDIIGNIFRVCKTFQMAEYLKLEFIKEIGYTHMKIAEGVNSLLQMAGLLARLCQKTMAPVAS
UniProt P62995: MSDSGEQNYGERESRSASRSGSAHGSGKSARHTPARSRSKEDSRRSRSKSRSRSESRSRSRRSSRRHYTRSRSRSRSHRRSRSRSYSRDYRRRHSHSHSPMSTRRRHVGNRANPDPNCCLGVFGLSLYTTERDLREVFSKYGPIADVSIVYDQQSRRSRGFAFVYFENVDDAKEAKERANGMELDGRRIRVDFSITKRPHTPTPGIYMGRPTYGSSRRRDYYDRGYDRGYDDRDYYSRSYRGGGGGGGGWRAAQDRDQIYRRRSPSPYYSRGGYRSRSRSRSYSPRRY
UniProt P35249: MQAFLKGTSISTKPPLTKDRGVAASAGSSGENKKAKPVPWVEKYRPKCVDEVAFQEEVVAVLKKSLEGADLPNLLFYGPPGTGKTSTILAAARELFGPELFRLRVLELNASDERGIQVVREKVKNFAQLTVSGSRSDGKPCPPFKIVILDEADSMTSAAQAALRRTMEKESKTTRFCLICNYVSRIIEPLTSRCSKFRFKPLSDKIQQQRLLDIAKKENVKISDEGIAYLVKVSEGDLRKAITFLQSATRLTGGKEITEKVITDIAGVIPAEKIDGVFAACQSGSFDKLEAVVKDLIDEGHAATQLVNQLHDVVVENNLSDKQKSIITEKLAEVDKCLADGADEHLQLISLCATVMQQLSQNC
UniProt P38646, residues 47-679: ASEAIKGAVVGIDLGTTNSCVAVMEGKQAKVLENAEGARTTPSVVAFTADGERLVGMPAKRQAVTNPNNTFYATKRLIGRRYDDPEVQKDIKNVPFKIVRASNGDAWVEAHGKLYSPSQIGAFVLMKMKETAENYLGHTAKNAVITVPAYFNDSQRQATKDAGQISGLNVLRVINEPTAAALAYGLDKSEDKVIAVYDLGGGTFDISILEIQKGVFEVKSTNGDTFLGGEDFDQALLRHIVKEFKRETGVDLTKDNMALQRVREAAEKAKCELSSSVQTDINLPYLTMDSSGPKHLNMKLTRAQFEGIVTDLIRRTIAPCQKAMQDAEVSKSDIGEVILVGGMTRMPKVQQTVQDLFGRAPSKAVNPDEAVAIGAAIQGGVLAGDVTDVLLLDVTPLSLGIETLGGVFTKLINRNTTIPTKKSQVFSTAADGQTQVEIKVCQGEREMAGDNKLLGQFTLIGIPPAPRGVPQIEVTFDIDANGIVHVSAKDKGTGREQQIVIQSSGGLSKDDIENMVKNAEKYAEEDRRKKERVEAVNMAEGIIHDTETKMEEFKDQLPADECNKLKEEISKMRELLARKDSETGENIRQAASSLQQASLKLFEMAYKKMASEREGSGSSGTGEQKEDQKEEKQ

B1: LIG3 (protein, UniProt P49916 43-1009)
chain: LLHGHPLFLRRKPVLSFQGSHLRSRATYLVFLPGLHVGLCSGPCEMAEQRFCVDYAKRGTAGCKKCKEKIVKGVCRIGKVVPNPFSESGGDMKEWYHIKCMFEKLERARATTKKIEDLTELEGWEELEDNEKEQITQHIADLSSKAAGTPKKKAVVQAKLTTTGQVTSPVKGASFVTSTNPRKFSGFSAKPNNSGEAPSSPTPKRSLSSSKCDPRHKDCLLREFRKLCAMVADNPSYNTKTQIIQDFLRKGSAGDGFHGDVYLTVKLLLPGVIKTVYNLNDKQIVKLFSRIFNCNPDDMARDLEQGDVSETIRVFFEQSKSFPPAAKSLLTIQEVDEFLLRLSKLTKEDEQQQALQDIASRCTANDLKCIIRLIKHDLKMNSGAKHVLDALDPNAYEAFKASRNLQDVVERVLHNAQEVEKEPGQRRALSVQASLMTPVQPMLAEACKSVEYAMKKCPNGMFSEIKYDGERVQVHKNGDHFSYFSRSLKPVLPHKVAHFKDYIPQAFPGGHSMILDSEVLLIDNKTGKPLPFGTLGVHKKAAFQDANVCLFVFDCIYFNDVSLMDRPLCERRKFLHDNMVEIPNRIMFSEMKRVTKALDLADMITRVIQEGLEGLVLKDVKGTYEPGKRHWLKVKKDYLNEGAMADTADLVVLGAFYGQGSKGGMMSIFLMGCYDPGSQKWCTVTKCAGGHDDATLARLQNELDMVKISKDPSKIPSWLKVNKIYYPDFIVPDPKKAAVWEITGAEFSKSEAHTADGISIRFPRCTRIRDDKDWKSATNLPQLKELYQLSKEKADFTVVAGDEGSSTTGGSSEENKGPSGSAVSRKAPSKPSASTKKAEGKLSNSNSKDGNMQTAKPSAMKVGEKLATKSSPVKVGEKRKAADETLCQTKVLLDIFTGVRLYLPPSTPDFSRLRRYFVAFDGDLVQEFDMTSATHVLGSRDKNPAAQQVSPEWIWACIRKRRLVAPC
B2: BANF1 (protein, UniProt O75531 1-89)
chain: MTTSQKHRDFVAEPMGEKPVGSLAGIGEVLGKKLEERGFDKAYVVLGQFLVLKKDEDLFREWLKDTCGANAKQSRDCFGCLREWCDAFL
B3: PRDX1 (protein, UniProt Q06830 1-199)
chain: MSSGNAKIGHPAPNFKATAVMPDGQFKDISLSDYKGKYVVFFFYPLDFTFVCPTEIIAFSDRAEEFKKLNCQVIGASVDSHFCHLAWVNTPKKQGGLGPMNIPLVSDPKRTIAQDYGVLKADEGISFRGLFIIDDKGILRQITVNDLPVGRSVDETLRLVQAFQFTDKHGEVCPAGWKPGSDTIKPDVQKSKEYFSKQK
B4: RNPS1 (protein, UniProt Q15287 1-305)
chain: MDLSGVKKKSLLGVKENNKKSSTRAPSPTKRKDRSDEKSKDRSKDKGATKESSEKDRGRDKTRKRRSASSGSSSTRSRSSSTSSSGSSTSTGSSSGSSSSSASSRSGSSSTSRSSSSSSSSGSPSPSRRRHDNRRRSRSKSKPPKRDEKERKRRSPSPKPTKVHIGRLTRNVTKDHIMEIFSTYGKIKMIDMPVERMHPHLSKGYAYVEFENPDEAEKALKHMDGGQIDGQEITATAVLAPWPRPPPRRFSPPRRMLPPPPMWRRSPPRMRRRSRSPRRRSPVRRRSRSPGRRRHRSRSSSNSSR
B5: RFC1 (protein, UniProt P35251 1-1148)
chain: MDIRKFFGVIPSGKKLVSETVKKNEKTKSDEETLKAKKGIKEIKVNSSRKEDDFKQKQPSKKKRIIYDSDSESEETLQVKNAKKPPEKLPVSSKPGKISRQDPVTYISETDEEDDFMCKKAASKSKENGRSTNSHLGTSNMKKNEENTKTKNKPLSPIKLTPTSVLDYFGTGSVQRSNKKMVASKRKELSQNTDESGLNDEAIAKQLQLDEDAELERQLHEDEEFARTLAMLDEEPKTKKARKDTEAGETFSSVQANLSKAEKHKYPHKVKTAQVSDERKSYSPRKQSKYESSKESQQHSKSSADKIGEVSSPKASSKLAIMKRKEESSYKEIEPVASKRKENAIKLKGETKTPKKTKSSPAKKESVSPEDSEKKRTNYQAYRSYLNREGPKALGSKEIPKGAENCLEGLIFVITGVLESIERDEAKSLIERYGGKVTGNVSKKTNYLVMGRDSGQSKSDKAAALGTKIIDEDGLLNLIRTMPGKKSKYEIAVETEMKKESKLERTPQKNVQGKRKISPSKKESESKKSRPTSKRDSLAKTIKKETDVFWKSLDFKEQVAEETSGDSKARNLADDSSENKVENLLWVDKYKPTSLKTIIGQQGDQSCANKLLRWLRNWQKSSSEDKKHAAKFGKFSGKDDGSSFKAALLSGPPGVGKTTTASLVCQELGYSYVELNASDTRSKSSLKAIVAESLNNTSIKGFYSNGAASSVSTKHALIMDEVDGMAGNEDRGGIQELIGLIKHTKIPIICMCNDRNHPKIRSLVHYCFDLRFQRPRVEQIKGAMMSIAFKEGLKIPPPAMNEIILGANQDIRQVLHNLSMWCARSKALTYDQAKADSHRAKKDIKMGPFDVARKVFAAGEETAHMSLVDKSDLFFHDYSIAPLFVQENYIHVKPVAAGGDMKKHLMLLSRAADSICDGDLVDSQIRSKQNWSLLPAQAIYASVLPGELMRGYMTQFPTFPSWLGKHSSTGKHDRIVQDLALHMSLRTYSSKRTVNMDYLSLLRDALVQPLTSQGVDGVQDVVALMDTYYLMKEDFENIMEISSWGGKPSPFSKLDPKVKAAFTRAYNKEAHLTPYSLQAIKASRHSTSPSLDSEYNEELNEDDSQSDEKDQDAIETDAMIKKKTKSSKPSKPEKDKEPRKGKGKSSKK
B6: PRIM2 (protein, UniProt P49643 1-509)
chain: MEFSGRKWRKLRLAGDQRNASYPHCLQFYLQPPSENISLIEFENLAIDRVKLLKSVENLGVSYVKGTEQYQSKLESELRKLKFSYRENLEDEYEPRRRDHISHFILRLAYCQSEELRRWFIQQEMDLLRFRFSILPKDKIQDFLKDSQLQFEAISDEEKTLREQEIVASSPSLSGLKLGFESIYKIPFADALDLFRGRKVYLEDGFAYVPLKDIVAIILNEFRAKLSKALALTARSLPAVQSDERLQPLLNHLSHSYTGQDYSTQGNVGKISLDQIDLLSTKSFPPCMRQLHKALRENHHLRHGGRMQYGLFLKGIGLTLEQALQFWKQEFIKGKMDPDKFDKGYSYNIRHSFGKEGKRTDYTPFSCLKIILSNPPSQGDYHGCPFRHSDPELLKQKLQSYKISPGGISQILDLVKGTHYQVACQKYFEMIHNVDDCGFSLNHPNQFFCESQRILNGGKDIKKEPIQPETPQPKPSVQKTKDASSALASLNSSLEMDMEGLEDYFSEDS
B7: Apoptotic Chromatin Condensation Inducer 1 (protein, UniProt Q9UKV3 1-1341)
chain: MWRRKHPRTSGGTRGVLSGNRGVEYGSGRGHLGTFEGRWRKLPKMPEAVGTDPSTSRKMAELEEVTLDGKPLQALRVTDLKAALEQRGLAKSGQKSALVKRLKGALMLENLQKHSTPHAAFQPNSQIGEEMSQNSFIKQYLEKQQELLRQRLEREAREAAELEEASAESEDEMIHPEGVASLLPPDFQSSLERPELELSRHSPRKSSSISEEKGDSDDEKPRKGERRSSRVRQARAAKLSEGSQPAEEEEDQETPSRNLRVRADRNLKTEEEEEEEEEEEEDDEEEEGDDEGQKSREAPILKEFKEEGEEIPRVKPEEMMDERPKTRSQEQEVLERGGRFTRSQEEARKSHLARQQQEKEMKTTSPLEEEEREIKSSQGLKEKSKSPSPPRLTEDRKKASLVALPEQTASEEETPPPLLTKEASSPPPHPQLHSEEEIEPMEGPAPAVLIQLSPPNTDADTRELLVSQHTVQLVGGLSPLSSPSDTKAESPAEKVPEESVLPLVQKSTLADYSAQKDLEPESDRSAQPLPLKIEELALAKGITEECLKQPSLEQKEGRRASHTLLPSHRLKQSADSSSSRSSSSSSSSSRSRSRSPDSSGSRSHSPLRSKQRDVAQARTHANPRGRPKMGSRSTSESRSRSRSRSRSASSNSRKSLSPGVSRDSSTSYTETKDPSSGQEVATPPVPQLQVCEPKERTSTSSSSVQARRLSQPESAEKHVTQRLQPERGSPKKCEAEEAEPPAATQPQTSETQTSHLPESERIHHTVEEKEEVTMDTSENRPENDVPEPPMPIADQVSNDDRPEGSVEDEEKKESSLPKSFKRKISVVSATKGVPAGNSDTEGGQPGRKRRWGASTATTQKKPSISITTESLKSLIPDIKPLAGQEAVVDLHADDSRISEDETERNGDDGTHDKGLKICRTVTQVVPAEGQENGQREEEEEEKEPEAEPPVPPQVSVEVALPPPAEHEVKKVTLGDTLTRRSISQQKSGVSITIDDPVRTAQVPSPPRGKISNIVHISNLVRPFTLGQLKELLGRTGTLVEEAFWIDKIKSHCFVTYSTVEEAVATRTALHGVKWPQSNPKFLCADYAEQDELDYHRGLLVDRPSETKTEEQGIPRPLHPPPPPPVQPPQHPRAEQREQERAVREQWAEREREMERRERTRSEREWDRDKVREGPRSRSRSRDRRRKERAKSKEKKSEKKEKAQEEPPAKLLDDLFRKTKAAPCIYWLPLTDSQIVQKEAERAERAKEREKRRKEQEEEEQKEREKEAERERNRQLEREKRREHSRERDRERERERERDRGDRDRDRERDRERGRERDRRDTKRHSRSRSRSTPVRDRGGRR

Columns and labels:
[1] = biological target: NS1-T585E-GFP (rat parvovirus H1 (H1-PV)) (UniProt P03133); assay: affinity purification with mass spectrometry
[2] = biological target: NS1-T585E-BioID2-HA (rat parvovirus H1 (H1-PV)) (UniProt P03133); assay: proximity labelling
[3] = biological target: T1, NS1-wt-GFP (rat parvovirus H1 (H1-PV)) (UniProt P03133); assay: affinity purification with mass spectrometry
T1 sequence: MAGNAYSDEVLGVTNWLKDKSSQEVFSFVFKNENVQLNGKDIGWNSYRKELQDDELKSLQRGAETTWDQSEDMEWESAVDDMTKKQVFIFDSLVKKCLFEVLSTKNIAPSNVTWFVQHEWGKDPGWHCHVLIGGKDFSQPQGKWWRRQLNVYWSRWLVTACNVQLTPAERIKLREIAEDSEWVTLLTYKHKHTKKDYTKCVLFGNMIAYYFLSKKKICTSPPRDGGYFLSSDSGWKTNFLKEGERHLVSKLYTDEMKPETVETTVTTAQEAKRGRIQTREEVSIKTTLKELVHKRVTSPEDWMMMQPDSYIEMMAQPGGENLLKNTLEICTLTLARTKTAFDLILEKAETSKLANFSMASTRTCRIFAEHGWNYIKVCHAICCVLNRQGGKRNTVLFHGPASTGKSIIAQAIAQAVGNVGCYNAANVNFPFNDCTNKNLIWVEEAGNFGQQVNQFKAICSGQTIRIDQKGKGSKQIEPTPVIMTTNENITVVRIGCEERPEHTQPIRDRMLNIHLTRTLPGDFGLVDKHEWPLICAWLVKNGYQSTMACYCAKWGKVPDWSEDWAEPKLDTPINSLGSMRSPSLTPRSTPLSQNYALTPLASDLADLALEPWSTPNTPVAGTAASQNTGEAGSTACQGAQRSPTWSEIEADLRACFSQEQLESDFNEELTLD

[4] = biological target: T2, NS1-wt-BioID2-HA (rat parvovirus H1 (H1-PV)) (UniProt P03133); assay: proximity labelling
T2 sequence: T1 sequence

Molecule | binding [1] | binding [2] | binding [3] | binding [4]
SRSF10 (from UniProt O75494 1-262) | binds |  |  | 
RBMX (from UniProt P38159 1-391) | binds | binds |  | 
TUBA1C (from UniProt Q9BQE3 1-449) | no binding |  | binds | binds
HSD17B10 (from UniProt Q99714 1-261) |  |  | binds | binds
CDK11B (from UniProt P21127 1-795) | binds |  |  | 
RFC2 (from UniProt P35250 1-354) | binds | binds |  | 
TRA2B (from UniProt P62995 1-288) | binds | binds |  | 
RFC4 (from UniProt P35249 1-363) | binds | binds |  | 
HSPA9 (from UniProt P38646 47-679) | binds | binds |  | 
B1 | binds | binds | binds | binds
B2 | binds | binds |  | 
B3 | binds | binds |  | 
B4 | binds | binds |  | 
B5 | binds |  |  | 
B6 | binds |  |  | 
B7 | binds |  | binds | 

These are yes or no findings as the source states them, for the method shown. Binding seen in cells or lysates may run through a third protein. A yes stands for co-enrichment or nearness to the bait. Other partners may have been found. For some of these results: A no says only that the protein was not detected with the bait. For some of these results: Tags and fused reporters may be left off the sequences shown.
